Assay results: article PMC7949103
No constants are given. Whether binding was seen depends on the method and setting. Binding seen in cells or lysates may run through a third protein. Some entries that bind do so weakly or less than the wild type. For part of these data: Where a sequence is shown, tags or fusion partners need not be part of it.

By UniProt entry, the sequences of proteins in these tests, tags left out. Residues count along the entry.
UniProt P60953: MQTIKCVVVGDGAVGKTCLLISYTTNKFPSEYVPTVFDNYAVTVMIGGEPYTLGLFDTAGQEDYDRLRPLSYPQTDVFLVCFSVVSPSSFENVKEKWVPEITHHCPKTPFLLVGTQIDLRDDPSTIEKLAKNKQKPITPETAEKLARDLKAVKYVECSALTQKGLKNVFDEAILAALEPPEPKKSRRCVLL
UniProt Q13153, residues 69-109: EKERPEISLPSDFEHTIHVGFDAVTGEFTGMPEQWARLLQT
UniProt Q96KP1, residues 5-97: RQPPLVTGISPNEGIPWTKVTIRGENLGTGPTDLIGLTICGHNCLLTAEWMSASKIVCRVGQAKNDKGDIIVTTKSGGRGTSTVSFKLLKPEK

Assays:
[1] = molecular target: RA-Cdc42 (ddRFPA-fused Cdc42) (UniProt P60953); assay: split reporter; dimerization-dependent red fluorescent protein: ddRFPB on the RBD, ddRFPA on the GTPase; HeLa cells also expressing the corresponding opto-GTPase, 458-nm laser every 10 s; Leibovitz's L-15 medium; fluorescence of the whole cell
[2] = molecular target: T1, RA-RalB (ddRFPA-fused RalB) (UniProt P11234); assay: split reporter; ddRFP biosensors in cells treated with lysophosphatidic acid (LPA) or epidermal growth factor (EGF); data not shown
T1 sequence: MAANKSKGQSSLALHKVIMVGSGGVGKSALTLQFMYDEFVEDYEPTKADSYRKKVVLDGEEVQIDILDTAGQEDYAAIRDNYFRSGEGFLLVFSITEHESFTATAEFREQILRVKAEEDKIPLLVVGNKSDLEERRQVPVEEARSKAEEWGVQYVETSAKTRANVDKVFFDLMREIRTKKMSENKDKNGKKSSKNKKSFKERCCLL

[3] = molecular target: T1, RA-RalB (ddRFPA-fused RalB); assay: split reporter; dimerization-dependent red fluorescent protein: ddRFPB on the RBD, ddRFPA on the GTPase; HeLa cells also expressing the corresponding opto-GTPase, 458-nm laser every 10 s; Leibovitz's L-15 medium; fluorescence of the whole cell

| binding [1] | binding [2] | binding [3] | Substance |
| --- | --- | --- | --- |
| binds | – | – | B3-RBD_(PAK1) (ddRFPB-fused RBD of PAK1, amino acids 69-109) (from UniProt Q13153 69-109) (domain or fragment) |
| – | binds | binds | B3-RBD_(Sec5) (ddRFPB-fused RBD of Sec5, amino acids 5-97) (from UniProt Q96KP1 5-97) (domain or fragment) |
